# Hit rate of the full screen: of about 300,000 compounds, about 5,400 (1.8%) were called active. Inconclusive results, whose numbers are uncertain, are shown with a selection of clear calls. Calls follow the shape of the full dose curve; tested in HEK293 cells. A potency beside an inconclusive call is a rough fit, not a confirmed value.
# Test: qHTS for inhibitors of binding or entry into cells for Marburg Virus
# Settings: Marburg virus pseudotyped entry inhibition, cell reporter; series mostly up to 37.8 µM
# Potency is read from the fitted curve at half-maximal effect.
row,SMILES,Potency
1,Cc1cccc2nc(-c3ccccn3)c(Nc3ccccc3)n12,"inconclusive: 12.6 µM [inhibitor, partial curve, poor fit]"
2,COC(=O)Cn1ncc2c3ccccc3n(C)c2c1=O,"inconclusive: 17.8 µM [activator, single point]"
3,O=C(O)c1cc(-c2cccs2)nn1-c1ccccc1,"inconclusive: 5.62 µM [activator, single point]"
4,S=C(Nc1ccc2nsnc2c1)NC1CCCCC1,"inconclusive: 29.1 µM [inhibitor, single point]"
5,Cc1ccc(-n2c(C)cc(C=C(C#N)C#N)c2C)cc1,inactive
6,Nc1ccc(SCCN2C(=O)c3ccccc3C2=O)cc1,"inconclusive: 29.1 µM [activator, single point]"
7,Cc1cc(C)n(-c2nc3ccccc3[nH]c2=O)n1,inactive
8,O=C(Nc1ccc(Cl)cc1)c1ccc2nsnc2c1,"inconclusive: 6.31 µM [activator, single point]"
9,CCOc1cccc(NCc2cc3c(C(C)(C)C)nn(-c4ccccc4)c3[nH]c2=O)c1,"inconclusive: 29.1 µM [inhibitor, single point]"
10,CC(=O)Nc1ccc(S(=O)(=O)CCC#N)cc1,"inconclusive: 18.3 µM [activator, partial curve]"
11,Cc1cn(CCC(=O)Nc2ccccc2N2CCOCC2)c2ccccc12,"inconclusive: 5.62 µM [inhibitor, single point]"
12,COc1ccc(OC)c(S(=O)(=O)NCc2cn3cccc(C)c3n2)c1,inactive
13,COC(=O)c1sccc1NC(=O)c1c(-c2ccccc2)noc1C,"inconclusive: 11.2 µM [inhibitor, single point]"
14,O=C(CCN1C(=O)/C(=C/C=C/c2ccccc2)SC1=S)Nc1cccnc1,"inconclusive: 35.5 µM [inhibitor, partial curve, poor fit]"
15,COc1ccc(C(=O)NC2CCCc3ccccc32)cc1 (centres undefined),"inconclusive: 3.16 µM [inhibitor, single point]"
16,CC(O)[C@@H](O)[C@H]1CNc2nc(N)[nH]c(=O)c2N1 (some centres undefined),inactive
17,Cc1ccc(C(=O)C(C)OC(=O)c2ccccc2[N+](=O)[O-])cc1 (centres undefined),"inconclusive: 0.517 µM [activator, partial curve, poor fit]"
18,COc1ccc2nc(NC(=O)CSc3nc4cccnc4n3C)sc2c1,"inconclusive: 20 µM [inhibitor, single point]"
19,N#C/C(=C\c1ccc[nH]1)C(=O)N1CCCCC1,"inconclusive: 3.55 µM [activator, full curve, poor fit]"
20,COc1cccc(CNS(=O)(=O)c2cc(Br)ccc2Br)c1OC,"inconclusive: 0.0995 µM [activator, full curve, poor fit]"
21,O=C(NCCc1ccc(Cl)cc1)C1CCN(c2cnccn2)CC1,inactive
22,Cc1cccc(N2CCN(C(=O)/C=C/c3cccs3)CC2)c1C,"inconclusive: 0.316 µM [inhibitor, partial curve, poor fit]"

# A few values from the entries so far:
# Potency with `Cc1ccc(-n2c(C)cc(C=C(C#N)C#N)c2C)cc1` reads inactive
# Potency with `Cc1cn(CCC(=O)Nc2ccccc2N2CCOCC2)c2ccccc12` reads inconclusive: 5.62 µM [inhibitor, single point]
# Potency with `O=C(O)c1cc(-c2cccs2)nn1-c1ccccc1` reads inconclusive: 5.62 µM [activator, single point]

# The listing continues:

row,SMILES,Potency
1,O=C(Nc1ccc(-n2cccn2)cc1)C1CCN(Cc2ccsc2)CC1,inactive
2,O=S(=O)([N-]c1nc2ccccc2nc1-n1cc[n+](Cc2ccccc2)c1)c1ccc(Cl)cc1,"inconclusive: 3.55 µM [inhibitor, single point]"
3,CCC(C(=O)OC)n1cnc2c(nnn2-c2ccc(OC)cc2)c1=O (centres undefined),inactive
4,CCOCCCN(Cc1ccco1)C(=O)c1cc2c(s1)-c1c(C)cccc1OC2,inactive
5,O=C(Cc1ccc([N+](=O)[O-])cc1)NCCc1ccc2c(c1)OCO2,"inconclusive: 0.501 µM [activator, full curve, poor fit]"
6,Cc1ccc(C(=O)NCC(=O)NCC(c2ccco2)N2CCCCC2)cc1C (centres undefined),inactive
7,CC(C)CN1C(=O)c2ccc(NC(=O)c3cccs3)cc2C1=O,"inconclusive: 16.4 µM [activator, single point]"
8,COc1cc(NC(=O)CSc2nnnn2C2CCCC2)cc(OC)c1,inactive
9,O=C(O)c1cccc(NC(=O)C23CC4CC(C2)CC(n2cnc(Cl)n2)(C4)C3)c1,"inconclusive: 0.501 µM [inhibitor, full curve, poor fit]"
10,COc1ccccc1Cn1nnc2c(=O)[nH]c(C3CCN(C(=O)c4ccc(F)cc4)CC3)nc21,inactive
11,CC(C)(C)c1cc(S(=O)(=O)CCc2ccncc2)cc(C(C)(C)C)c1F,inactive
12,COc1ccc(OC)c(NC(=O)c2nc(S(=O)(=O)Cc3ccc(F)cc3)ncc2Cl)c1,"inconclusive: 20 µM [inhibitor, single point]"
13,CCOC(=O)N[C@H](Cc1c[nH]c2ccccc12)C(=O)Nc1cccc(Cl)c1,"inconclusive: 28.2 µM [inhibitor, single point]"
14,COc1ccc(OCC(=O)Nc2ccc(N3CCN(C(=O)c4ccco4)CC3)cc2)cc1,"inconclusive: 35.5 µM [inhibitor, single point]"
15,O=C(Nc1ccccc1NC(=O)c1c(F)c(F)c(F)c(F)c1F)c1c(F)c(F)c(F)c(F)c1F,"inconclusive: 29.1 µM [inhibitor, single point]"
16,Cc1ccc(S(=O)(=O)N(C)c2ccc(C(=O)NCc3cccnc3)cc2)cc1,"inconclusive: 6.31 µM [activator, single point]"
17,Cc1ccc(-n2c(C)cc(/C=C(\C#N)C(=O)Nc3ccc(C)c(C)c3)c2C)cc1,"inconclusive: 3.55 µM [activator, single point]"
18,Cn1cccc1CC(=O)NNC(=S)NC(=O)c1ccccc1Br,"inconclusive: 22.4 µM [inhibitor, single point]"
19,Cc1cc(=O)[nH]c(N/N=C/c2ccc(-c3ccc(F)cc3)o2)n1,inactive
20,CC(NC(=O)c1ccc(S(=O)(=O)N(C)C)cc1)c1ccc(-n2ccnc2)cc1 (centres undefined),"inconclusive: 5.01 µM [inhibitor, full curve]"
21,CCCNC(=O)c1ccc(-c2nn(C)c(=O)c3ccccc23)cc1,"inconclusive: 11.2 µM [activator, partial curve, poor fit]"
22,O=[N+]([O-])C(=C1Nc2ccccc2N1)/C(Cl)=C(/Cl)Br,inactive

# Reference: PubChem BioAssay AID540276 (National Center for Advancing Translational Sciences (NCATS), 2011)
